From US20250188068A1, “AMIDO CYCLOPROPYL DERIVATIVES AS LPA RECEPTOR INHIBITORS” (CHIESI FARMACEUTICI S.P.A., priority 2022, published 2025)
Some of these results come from one statement about several compounds together.

Tested on: Caco-2 cells monolayers (human colon carcinoma cell line)
Assay: Caco-2 cell monolayer permeability assay (AtoB/BtoA, with and without P-gp inhibitor Elacridar)
Conditions: Papp AtoB with P-gp inhibitor Elacridar, Caco-2, pH 7.4, 10 μM, 60 min

Compound	Passive Permeability [×10⁻⁶ cm/s]
C[C@@H](OC(=O)Nc1c(-c2ccc(NC(=O)[C@@H]3[C@@H](C(=O)O)C3(F)F)cc2)nnn1C)c1ccccc1Cl [Compound 35, (1S,3S)-3-((4-(5-((((R)-1-(2-chlorophenyl)ethoxy)carbonyl)amino)-1-methyl-1H-1,2,3-triazol-4-yl)phenyl)carbamoyl)-2,2-difluorocyclopropane-1-carboxylic acid]	≤0.5
Cc1noc(-c2ccc(NC(=O)C3C(c4nnn[nH]4)C3(F)F)cc2)c1NC(=O)O[C@H](C)c1ccccc1Cl (mixture of isomers) [Compound 13, (R)-1-(2-chlorophenyl)ethyl (5-(4-(2,2-difluoro-3-(1H-tetrazol-5-yl)cyclopropane-1-carboxamido)phenyl)-3-methylisoxazol-4-yl)carbamate, mix of Trans diastereomers]	≤0.5
Cc1noc(-c2ccc(N(C)C(=O)C3C(C(=O)O)C3(F)F)cc2)c1NC(=O)O[C@H](C)c1ccccc1Cl (single isomer, unassigned; diastereomer 2) [Compound 9]	≤0.5
Cc1nc(-c2onc(C)c2CNc2nccc(C3CCCCC3)n2)ccc1NC(=O)[C@@H]1[C@@H](C(=O)O)C1(F)F (racemic) [Compound 18, 3-((6-(4-(((4-cyclohexylpyrimidin-2-yl)amino)methyl)-3-methylisoxazol-5-yl)-2-methylpyridin-3-yl)carbamoyl)-2,2-difluorocyclopropane-1-carboxylic acid, mix of Trans diastereomers]	≤0.5
C[C@@H](OC(=O)Nc1cccn1-c1ccc(NC(=O)[C@@H]2[C@@H](C(=O)O)C2(F)F)cc1)c1ccccc1Cl [Compound 39]	≤0.5
Cc1noc(-c2ccc(NC(=O)[C@@H]3[C@@H](C(=O)O)C3(F)F)cc2)c1COC(=O)N(C)C1CCCC1 (racemic) [Compound 36, 3-((4-(4-(((cyclopentyl(methyl)carbamoyl)oxy)methyl)-3-methylisoxazol-5-yl)phenyl)carbamoyl)-2,2-difluorocyclopropane-1-carboxylic acid, mix of Trans diastereomers]	≤0.5
Cc1nc(-c2onc(C)c2NC(=O)O[C@H](C)c2ccccc2Cl)ccc1NC(=O)[C@@H]1[C@@H](c2n[nH]c(=S)n2C)C1(F)F [Compound 44, (R)-1-(2-chlorophenyl)ethyl (5-(5-((1S,3S)-2,2-difluoro-3-(4-methyl-5-thioxo-4,5-dihydro-1H-1,2,4-triazol-3-yl)cyclopropane-1-carboxamido)-6-methylpyridin-2-yl)-3-methylisoxazol-4-yl)carbamate]	≤0.5
Cc1nc(-c2onc(C)c2CNc2nccc(C3CCCCC3)n2)ccc1NC(=O)C1C(C(=O)O)C1(F)F (single isomer, unassigned; enantiomer 1) [Compound 19, Single Enantiomer 1 of Trans-3-((6-(4-(((4-cyclohexylpyrimidin-2-yl)amino)methyl)-3-methylisoxazol-5-yl)-2-methylpyridin-3-yl)carbamoyl)-2,2-difluorocyclopropane-1-carboxylic acid]	≤0.5
Cc1noc(-c2ccc(N(C)C(=O)C3C(C(=O)O)C3(F)F)cc2)c1NC(=O)O[C@H](C)c1ccccc1Cl (single isomer, unassigned) [Compound 8]	≤0.5
C[C@@H](OC(=O)Nc1ncoc1-c1ccc(NC(=O)[C@@H]2[C@@H](C(=O)O)C2(F)F)cc1)c1ccccc1Cl [Compound 40, methyl (1S,3S)-3-((4-(4-((((R)-1-(2-chlorophenyl)ethoxy)carbonyl)amino)oxazol-5-yl)phenyl)carbamoyl)-2,2-difluorocyclopropane-1-carboxlic acid]	≤0.5
Cc1nc(-c2onc(C)c2CNc2nccc(-c3ccsc3)n2)ccc1NC(=O)[C@@H]1[C@@H](C(=O)O)C1(F)F [Compound 21, (1S,3S)-2,2-difluoro-3-((2-methyl-6-(3-methyl-4-(((4-(thiophen-3-yl)pyrimidin-2-yl)amino)methyl)isoxazol-5-yl)pyridin-3-yl)carbamoyl)cyclopropane-1-carboxylic acid]	≤0.5
Cc1nc(-c2onc(C)c2Nc2cncc(OC(C)C)n2)ccc1NC(=O)C1C(C(=O)O)C1(F)F (single isomer, unassigned; diastereomer 2) [Compound 11]	≤0.5
Cc1nc(-c2snc(C)c2NC(=O)O[C@H](C)c2ccccc2Cl)ccc1NC(=O)C1C(C(=O)O)C1(F)F (single isomer, unassigned; diastereomer 1) [Compound 31]	≤0.5
Cc1nc(-c2onc(C)c2CNc2nccc(-c3cccs3)n2)ccc1NC(=O)[C@@H]1[C@@H](C(=O)O)C1(F)F [Compound 24, (1S,3S)-2,2-difluoro-3-((2-methyl-6-(3-methyl-4-(((4-(thiophen-2-yl)pyrimidin-2-yl)amino)methyl)isoxazol-5-yl)pyridin-3-yl)carbamoyl)cyclopropane-1-carboxylic acid]	≤0.5
Cc1nc(-c2onc(C)c2NC(=O)O[C@H](C)c2ccccc2Cl)ccc1NC(=O)[C@H]1[C@H](C(=O)O)C1(F)F [Compound 2, (1R,3R)-3-((6-(4-((((R)-1-(2-chlorophenyl)ethoxy)carbonyl)amino)-3-methylisoxazol-5-yl)-2-methylpyridin-3-yl)carbamoyl)-2,2-difluorocyclopropane-1-carboxylic acid]	≤0.5
Cc1nc(-c2nnn(C)c2NC(=O)O[C@H](C)c2ccccc2Cl)ccc1NC(=O)C1C(C(=O)O)C1(F)F (single isomer, unassigned) [Compound 32]	≤0.5
Cc1nc(-c2onc(C)c2NC(=O)O[C@H](C)c2ccccc2Cl)ccc1NC(=O)C1C(c2nsc(=O)[nH]2)C1(F)F (stereo partly drawn) [Compound 43, (R)-1-(2-chlorophenyl)ethyl (5-(5-(2,2-difluoro-3-(5-oxo-4,5-dihydro-1,2,4-thiadiazol-3-yl)cyclopropane-1-carboxamido)-6-methylpyridin-2-yl)-3-methylisoxazol-4-yl)carbamate]	≤0.5
Cc1nc(-c2onc(C)c2CNc2nccc(-c3cnccn3)n2)ccc1NC(=O)[C@@H]1[C@@H](C(=O)O)C1(F)F [Compound 23, (1S,3S)-2,2-difluoro-3-((2-methyl-6-(3-methyl-4-(((4-(pyrazin-2-yl)pyrimidin-2-yl)amino)methyl)isoxazol-5-yl)pyridin-3-yl)carbamoyl)cyclopropane-1-carboxylic acid]	≤0.5
Cc1nc(-c2onc(C)c2NC(=O)O[C@H](C)c2ccccc2Cl)ccc1NC(=O)C1C(c2nnn[nH]2)C1(F)F (mixture of isomers) [Compound 14, (R)-1-(2-chlorophenyl)ethyl (5-(5-(2,2-difluoro-3-(1H-tetrazol-5-yl)cyclopropane-1-carboxamido)-6-methylpyridin-2-y1)-3-methylisoxazol-4-yl)carbamate, mix of Trans diastereomers]	≤0.5
Cc1nc(-c2onc(C)c2CNc2nccc(-c3cccnc3)n2)ccc1NC(=O)[C@@H]1[C@@H](C(=O)O)C1(F)F [Compound 25, (1S,3S)-2,2-difluoro-3-((2-methyl-6-(3-methyl-4-(((4-(pyridin-3-yl)pyrimidin-2-yl)amino)methyl)isoxazol-5-yl)pyridin-3-yl)carbamoyl)cyclopropane-1-carboxylic acid]	≤0.5
